# From paper PMC9025633
# Protein sequences, listed by entry. Tags and fused reporters are not part of them. Residues count along the entry.
# UniProt O75581, residues 20-1613: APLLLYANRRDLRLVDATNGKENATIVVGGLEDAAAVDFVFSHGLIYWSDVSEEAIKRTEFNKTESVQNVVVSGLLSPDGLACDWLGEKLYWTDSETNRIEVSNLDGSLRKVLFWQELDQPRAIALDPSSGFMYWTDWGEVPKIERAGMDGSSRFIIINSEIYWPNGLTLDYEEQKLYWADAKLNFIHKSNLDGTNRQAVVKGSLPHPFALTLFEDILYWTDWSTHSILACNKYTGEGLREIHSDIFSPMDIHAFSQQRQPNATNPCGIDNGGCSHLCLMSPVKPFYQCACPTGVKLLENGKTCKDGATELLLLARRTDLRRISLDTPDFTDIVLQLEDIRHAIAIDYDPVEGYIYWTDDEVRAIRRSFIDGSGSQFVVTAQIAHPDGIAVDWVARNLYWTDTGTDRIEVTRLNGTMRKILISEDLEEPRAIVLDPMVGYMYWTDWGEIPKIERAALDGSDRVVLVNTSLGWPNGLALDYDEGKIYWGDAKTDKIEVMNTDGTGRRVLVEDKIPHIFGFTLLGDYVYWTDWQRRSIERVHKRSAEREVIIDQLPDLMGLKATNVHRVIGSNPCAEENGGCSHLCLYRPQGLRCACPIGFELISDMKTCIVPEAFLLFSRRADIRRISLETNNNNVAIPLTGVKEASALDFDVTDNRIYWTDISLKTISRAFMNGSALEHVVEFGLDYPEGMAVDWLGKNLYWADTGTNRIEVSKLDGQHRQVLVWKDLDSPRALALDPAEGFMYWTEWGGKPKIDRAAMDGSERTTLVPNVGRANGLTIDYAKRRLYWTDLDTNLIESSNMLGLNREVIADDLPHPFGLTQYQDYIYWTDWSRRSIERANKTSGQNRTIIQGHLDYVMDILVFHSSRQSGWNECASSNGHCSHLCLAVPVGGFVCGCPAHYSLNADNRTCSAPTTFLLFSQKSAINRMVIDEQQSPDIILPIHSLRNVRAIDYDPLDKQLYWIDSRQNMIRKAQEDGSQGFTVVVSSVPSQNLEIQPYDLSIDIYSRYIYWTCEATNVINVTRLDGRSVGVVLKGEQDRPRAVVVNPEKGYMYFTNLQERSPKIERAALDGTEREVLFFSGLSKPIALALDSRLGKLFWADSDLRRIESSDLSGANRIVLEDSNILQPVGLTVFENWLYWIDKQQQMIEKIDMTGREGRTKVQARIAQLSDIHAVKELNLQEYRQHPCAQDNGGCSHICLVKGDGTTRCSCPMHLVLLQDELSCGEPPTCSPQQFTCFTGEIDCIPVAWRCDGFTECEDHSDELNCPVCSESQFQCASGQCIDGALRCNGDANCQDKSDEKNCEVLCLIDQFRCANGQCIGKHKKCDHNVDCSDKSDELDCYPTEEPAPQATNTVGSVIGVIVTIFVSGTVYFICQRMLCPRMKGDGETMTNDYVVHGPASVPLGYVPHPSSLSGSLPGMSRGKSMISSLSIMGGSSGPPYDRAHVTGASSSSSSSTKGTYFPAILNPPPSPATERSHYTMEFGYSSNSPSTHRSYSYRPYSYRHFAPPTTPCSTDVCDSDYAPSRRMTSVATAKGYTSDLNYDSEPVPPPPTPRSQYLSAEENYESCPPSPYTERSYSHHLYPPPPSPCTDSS
# UniProt P55085, residues 37-397: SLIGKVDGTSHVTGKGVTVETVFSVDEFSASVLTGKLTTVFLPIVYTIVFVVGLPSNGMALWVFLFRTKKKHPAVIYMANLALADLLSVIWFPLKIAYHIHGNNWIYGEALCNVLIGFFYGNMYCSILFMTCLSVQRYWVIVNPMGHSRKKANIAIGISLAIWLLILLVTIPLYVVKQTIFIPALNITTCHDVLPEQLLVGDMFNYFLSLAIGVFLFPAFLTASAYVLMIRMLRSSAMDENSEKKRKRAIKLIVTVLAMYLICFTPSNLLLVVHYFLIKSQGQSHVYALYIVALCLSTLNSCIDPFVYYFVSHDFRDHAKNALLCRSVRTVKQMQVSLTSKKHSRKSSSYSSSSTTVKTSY
# UniProt P02749, residues 20-345: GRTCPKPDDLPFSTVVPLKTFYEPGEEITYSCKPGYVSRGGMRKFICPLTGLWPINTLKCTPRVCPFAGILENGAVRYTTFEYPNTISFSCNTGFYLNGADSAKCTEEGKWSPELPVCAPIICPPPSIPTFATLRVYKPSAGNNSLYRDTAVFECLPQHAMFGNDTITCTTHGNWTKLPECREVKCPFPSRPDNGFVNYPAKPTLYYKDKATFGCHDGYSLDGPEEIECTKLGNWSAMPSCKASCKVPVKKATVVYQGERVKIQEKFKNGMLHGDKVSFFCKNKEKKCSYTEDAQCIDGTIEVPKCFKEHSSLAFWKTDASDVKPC
# No constants are given. Whether binding was seen depends on the method and setting. In cells and extracts the contact can be indirect. Some binding calls cover weakened binding; strength is not graded here.
# How the values were obtained:
# [1] = biological target: Low-density lipoprotein receptor-related protein 6 (LRP6) (human (endogenous in HUVEC)) (UniProt O75581); assay: co-IP; pooled Triton X-100-insoluble fractions (4-5-6) of HUVEC, untreated or treated with affinity-purified anti-β2-GPI antibodies for 45 min at 37 °C; immunoprecipitated with goat anti-LRP6 Abs and protein G-acrylic beads; western blot with anti-PAR-2 mAb or anti-β2-GPI Ab; irrelevant polyclonal IgG as negative control
# [2] = biological target: Low-density lipoprotein receptor-related protein 6 (LRP6) (human (endogenous in HUVEC)) (UniProt O75581); assay: co-IP; pooled Triton X-100-insoluble fractions (4-5-6) of unstimulated (untreated) HUVEC; immunoprecipitated with goat anti-LRP6 Abs and protein G-acrylic beads; western blot with anti-β2-GPI Ab
binding [1],binding [2],Substance
binds,,protease-activated receptor-2 (PAR-2) (from UniProt P55085 37-397)
binds,binds weakly,β2-glycoprotein-I (β2-GPI) (from UniProt P02749 20-345)
